Data on three molecules can be found in article PMC6155126.

By UniProt entry, the sequences of proteins in these tests, tags left out.
UniProt Q9BUH6: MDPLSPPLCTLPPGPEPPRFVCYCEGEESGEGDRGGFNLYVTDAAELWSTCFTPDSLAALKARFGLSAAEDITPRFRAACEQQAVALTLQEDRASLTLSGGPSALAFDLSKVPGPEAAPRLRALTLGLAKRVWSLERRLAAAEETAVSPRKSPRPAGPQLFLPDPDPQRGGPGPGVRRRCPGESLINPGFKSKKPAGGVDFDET
UniProt Q9H9Q4: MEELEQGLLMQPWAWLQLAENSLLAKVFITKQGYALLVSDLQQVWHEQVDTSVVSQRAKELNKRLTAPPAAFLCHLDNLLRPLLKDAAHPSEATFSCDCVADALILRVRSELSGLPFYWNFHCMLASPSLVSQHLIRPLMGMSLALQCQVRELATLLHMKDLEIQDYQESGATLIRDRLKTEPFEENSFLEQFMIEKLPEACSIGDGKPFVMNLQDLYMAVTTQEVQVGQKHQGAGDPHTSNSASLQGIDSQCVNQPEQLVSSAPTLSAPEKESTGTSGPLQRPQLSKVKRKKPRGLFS
UniProt Q13426: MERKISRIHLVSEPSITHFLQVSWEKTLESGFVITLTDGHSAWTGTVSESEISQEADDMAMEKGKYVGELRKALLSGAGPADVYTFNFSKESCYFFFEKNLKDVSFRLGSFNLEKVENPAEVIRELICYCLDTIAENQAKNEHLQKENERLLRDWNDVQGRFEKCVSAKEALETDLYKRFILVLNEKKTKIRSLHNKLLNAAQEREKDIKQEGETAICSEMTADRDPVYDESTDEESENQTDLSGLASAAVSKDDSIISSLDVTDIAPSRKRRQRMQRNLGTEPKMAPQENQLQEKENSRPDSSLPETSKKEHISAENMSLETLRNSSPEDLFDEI

No constants are given. Whether binding was seen depends on the method and setting. Binding seen in cells or lysates may run through a third protein. These calls come from enrichment with a bait or labelling near it, and not all partners need be listed. For part of these data: No binding means not detected with the bait.

B1: dynamin 3 (protein, UniProt Q9UQ16 1-869)
chain: MGNREMEELIPLVNRLQDAFSALGQSCLLELPQIAVVGGQSAGKSSVLENFVGRDFLPRGSGIVTRRPLVLQLVTSKAEYAEFLHCKGKKFTDFDEVRLEIEAETDRVTGMNKGISSIPINLRVYSPHVLNLTLIDLPGITKVPVGDQPPDIEYQIREMIMQFITRENCLILAVTPANTDLANSDALKLAKEVDPQGLRTIGVITKLDLMDEGTDARDVLENKLLPLRRGYVGVVNRSQKDIDGKKDIKAAMLAERKFFLSHPAYRHIADRMGTPHLQKVLNQQLTNHIRDTLPNFRNKLQGQLLSIEHEVEAYKNFKPEDPTRKTKALLQMVQQFAVDFEKRIEGSGDQVDTLELSGGAKINRIFHERFPFEIVKMEFNEKELRREISYAIKNIHGIRTGLFTPDMAFEAIVKKQIVKLKGPSLKSVDLVIQELINTVKKCTKKLANFPRLCEETERIVANHIREREGKTKDQVLLLIDIQVSYINTNHEDFIGFANAQQRSSQVHKKTTVGNQGTNLPPSRQIVIRKGWLTISNIGIMKGGSKGYWFVLTAESLSWYKDDEEKEKKYMLPLDNLKVRDVEKSFMSSKHIFALFNTEQRNVYKDYRFLELACDSQEDVDSWKASLLRAGVYPDKSVAENDENGQAENFSMDPQLERQVETIRNLVDSYMSIINKCIRDLIPKTIMHLMINNVKDFINSELLAQLYSSEDQNTLMEESAEQAQRRDEMLRMYQALKEALGIIGDISTATVSTPAPPPVDDSWIQHSRRSPPPSPTTQRRPTLSAPLARPTSGRGPAPAIPSPGPHSGAPPVPFRPGPLPPFPSSSDSFGAPPQVPSRPTRAPPSVPSRRPPPSPTRPTIIRPLESSLLD
B2: TERF2IP/RAP1 (protein, UniProt Q9NYB0 1-399)
chain: MAEAMDLGKDPNGPTHSSTLFVRDDGSSMSFYVRPSPAKRRLSTLILHGGGTVCRVQEPGAVLLAQPGEALAEASGDFISTQYILDCVERNERLELEAYRLGPASAADTGSEAKPGALAEGAAEPEPQRHAGRIAFTDADDVAILTYVKENARSPSSVTGNALWKAMEKSSLTQHSWQSLKDRYLKHLRGQEHKYLLGDAPVSPSSQKLKRKAEEDPEAADSGEPQNKRTPDLPEEEYVKEEIQENEEAVKKMLVEATREFEEVVVDESPPDFEIHITMCDDDPPTPEEDSETQPDEEEEEEEEKVSQPEVGAAIKIIRQLMEKFNLDLSTVTQAFLKNSGELEATSAFLASGQRADGYPIWSRQDDIDLQKDDEDTREALVKKFGAQNVARRIEFRKK
B3: dynamin 1 (protein, UniProt Q05193 1-864)
chain: MGNRGMEDLIPLVNRLQDAFSAIGQNADLDLPQIAVVGGQSAGKSSVLENFVGRDFLPRGSGIVTRRPLVLQLVNATTEYAEFLHCKGKKFTDFEEVRLEIEAETDRVTGTNKGISPVPINLRVYSPHVLNLTLVDLPGMTKVPVGDQPPDIEFQIRDMLMQFVTKENCLILAVSPANSDLANSDALKVAKEVDPQGQRTIGVITKLDLMDEGTDARDVLENKLLPLRRGYIGVVNRSQKDIDGKKDITAALAAERKFFLSHPSYRHLADRMGTPYLQKVLNQQLTNHIRDTLPGLRNKLQSQLLSIEKEVEEYKNFRPDDPARKTKALLQMVQQFAVDFEKRIEGSGDQIDTYELSGGARINRIFHERFPFELVKMEFDEKELRREISYAIKNIHGIRTGLFTPDMAFETIVKKQVKKIREPCLKCVDMVISELISTVRQCTKKLQQYPRLREEMERIVTTHIREREGRTKEQVMLLIDIELAYMNTNHEDFIGFANAQQRSNQMNKKKTSGNQDEILVIRKGWLTINNIGIMKGGSKEYWFVLTAENLSWYKDDEEKEKKYMLSVDNLKLRDVEKGFMSSKHIFALFNTEQRNVYKDYRQLELACETQEEVDSWKASFLRAGVYPERVGDKEKASETEENGSDSFMHSMDPQLERQVETIRNLVDSYMAIVNKTVRDLMPKTIMHLMINNTKEFIFSELLANLYSCGDQNTLMEESAEQAQRRDEMLRMYHALKEALSIIGDINTTTVSTPMPPPVDDSWLQVQSVPAGRRSPTSSPTPQRRAPAVPPARPGSRGPAPGPPPAGSALGGAPPVPSRPGASPDPFGPPPQVPSRPNRAPPGVPSRSGQASPSRPESPRPPFDL

For one test, the target named is FLAG-DNA-PKcs (UniProt P78527). As to the kind of experiment: affinity purification with mass spectrometry; anti-FLAG IP of FLAG-PAXX, -XLF, -XRCC4, -DNA-PKcs (stable) or FLAG-Pol λ (transient) from nucleoplasmic and benzonase-treated soluble chromatin fractions of HEK293F cells; FLAG peptide elution; LC-MS/MS.
For the molecule B1, the binding result was “binds”.

Regarding B2, the binding result is “binds”.

Consider B3, for which the binding entry was “binds”.

A further test deals with FLAG-PAXX (human) (UniProt Q9BUH6). The test is described as above.
Take B1: the binding result is recorded as “binds”.

Take B2: the binding entry is given as “binds”.

For the molecule B3, the binding entry was “binds”.

The target of the next test is FLAG-XLF (human) (UniProt Q9H9Q4). The description is as above.
With B1, the binding result is “binds”.

B2: the binding entry is given as “binds”.

In the case of B3, the binding entry is recorded as “binds”.

In the next test the target is FLAG-XRCC4 (human) (UniProt Q13426). The description is as above.
As for B1, the binding result is given as “no binding”.

As to B2, the binding entry is recorded as “no binding”.

For B3, the binding entry is “no binding”.
